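SH-SY5Y cells carrying a GLuc-SERCaMP reporter are challenged with thapsigargin, and luminescence from the secreted luciferase is read, with one incubation step lasting 4 hours.
Compounds were run as a dilution series spanning about 2.6e-05 to 200 µM, mostly topping out at 38.4 µM.
The number is the fitted AC50 for inhibition of the reporter signal; a lower value means a more potent compound.
Calls come from curve class and activity score: actives score 40 to 100, inconclusives 1 to 39, and inactives (curve class 4) score 0.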

Values are in µM.
Every entry below has the call inconclusive.
Only part of the assay is shown, chiefly results filed as inconclusive.
A potency from a partial, single-point or poor curve is only a rough figure.
Some entries filed as inconclusive have a full curve.
Activity scores are not listed here.
An entry listed twice with the same setting is a separate test.

Compound | Potency (µM) | curve
Cc1ccccc1-c1ccc2ncnc(N3CCN(C)CC3)c2c1 | 28.18 | inhibitor, single point
O=C1c2ccccc2C(=O)c2c(NCCc3ccc(O)cc3)ccc(NCCc3ccc(O)cc3)c21 | 6.31 | inhibitor, partial curve, poor fit
Nc1nc2ccc(Cl)cc2c2nc(-c3ccco3)nn12 | 31.62 | inhibitor, partial curve, poor fit
C[C@](N)(Cc1ccc(O)c(O)c1)C(=O)O | 31.62 | inhibitor, partial curve, poor fit
CCCCCCCCCCCCCCCCCCc1ccc(C(=O)/C=C\C(=O)O)cc1 | 39.81 | inhibitor, full curve
NC/C=C/C(=O)O | 35.48 | inhibitor, partial curve, poor fit
CCCOc1ccc2[nH]cc(C3=CCNCC3)c2n1 | 10 | inhibitor, partial curve, poor fit
COc1ccc(C2Sc3ccccc3N(CCN(C)C)C(=O)[C@@H]2OC(C)=O)cc1 (stereo partly specified) | 10 | inhibitor, partial curve, poor fit
CC(C)c1ccc2oc3nc(N)c(C(=O)O)cc3c(=O)c2c1 | 31.62 | inhibitor, partial curve, poor fit
O=C1c2ccccc2C(=O)c2c(O)ccc(O)c21 | 10 | inhibitor, partial curve, poor fit
CSc1ccc2c(c1)C(N1CCN(C)CC1)Cc1ccccc1S2 (stereo unspecified) | 2.239 | inhibitor, full curve
c1ccc2c(Nc3ccncc3)nc(-c3ccoc3)nc2c1 | 12.59 | inhibitor, single point
C1CCc2nnnn2CC1 | 35.48 | inhibitor, partial curve, poor fit
O=C1OC(c2ccc(O)cc2)(c2ccc(O)cc2)c2ccccc21 | 25.12 | inhibitor, single point
Cc1ccccc1-c1nc(N2CCNCC2)c2ccccc2n1 | 12.59 | inhibitor, partial curve, poor fit
CCN(CC)CCOCCOC(=O)C1(c2ccccc2)CCCC1 | 11.22 | inhibitor, single point
O=C(Nc1cccc(C(=O)Nc2ccc(S(=O)(=O)O)c3cc(S(=O)(=O)O)cc(S(=O)(=O)O)c23)c1)Nc1cccc(C(=O)Nc2ccc(S(=O)(=O)O)c3cc(S(=O)(=O)O)cc(S(=O)(=O)O)c23)c1 | 31.62 | inhibitor, partial curve, poor fit
O=C(c1ccc(F)cc1)C1CCN(CCCCc2ccccc2)CC1 | 10 | inhibitor, single point
Brc1c(NC2=NCCN2)ccc2nccnc12 | 31.62 | inhibitor, partial curve, poor fit
c1cncc(-c2nc(N3CCNCC3)c3ccccc3n2)c1 | 10 | inhibitor, partial curve, poor fit
Cl.Cl.Cl.Cl.Cl.Cl.N.N.N.N.NNNNN.NNNNN.O.O.[Ru].[Ru].[Ru] | 10 | inhibitor, partial curve, poor fit
Nc1ccc(S(=O)(=O)Nc2ccnn2-c2ccccc2)cc1 | 0.0033 | inhibitor, full curve, poor fit
CN(C)C/C=C(/c1ccc(Br)cc1)c1cccnc1 | 10 | inhibitor, partial curve, poor fit
O=C(Nc1cccc(C(=O)Nc2ccc(S(=O)(=O)O)c3cc(S(=O)(=O)O)cc(S(=O)(=O)O)c23)c1)Nc1cccc(C(=O)Nc2ccc(S(=O)(=O)O)c3cc(S(=O)(=O)O)cc(S(=O)(=O)O)c23)c1 | 22.39 | inhibitor, partial curve, poor fit
CC(C)OC(=O)c1cc(C(=O)OC(C)C)cc([N+](=O)[O-])c1 | 12.59 | inhibitor, partial curve, poor fit
Nc1ccc(O)cc1 | 2.512 | inhibitor, full curve, poor fit
NCCc1c[nH]c2ccc(O)cc12 | 11.22 | inhibitor, partial curve, poor fit
O=C1CC2(CCCC2)CC(=O)N1CCCCNC[C@H]1COc2ccccc2O1 | 28.18 | inhibitor, single point
COc1ccc(NS(=O)(=O)c2ccc(I)cc2)cc1N1CCN(C)CC1 | 5.623 | inhibitor, partial curve, poor fit
c1ccc(Nc2nc(-c3cccnc3)nc3ccccc23)cc1 | 28.18 | inhibitor, single point
CCOc1c(N2CCOCC2)cnn(C)c1=O | 2.239 | inhibitor, full curve, poor fit
Cc1ccc(C(=O)Nc2ccc(S(=O)(=O)O)c3cc(S(=O)(=O)O)cc(S(=O)(=O)O)c23)cc1NC(=O)c1cccc(NC(=O)Nc2cccc(C(=O)Nc3cc(C(=O)Nc4ccc(S(=O)(=O)O)c5cc(S(=O)(=O)O)cc(S(=O)(=O)O)c45)ccc3C)c2)c1 | 10 | inhibitor, partial curve, poor fit
O=C(O)CCCCC(=O)O | 31.62 | inhibitor, single point
N[C@H](CCCP(=O)(O)O)C(=O)O | 89.13 | inhibitor, partial curve
COCCn1c(=O)c(-c2cc(F)cc(F)c2)nc2cnc(N3CCN(C)CC3)nc21 | 25.12 | inhibitor, single point
Cc1nc2cnc(OCc3ccccc3)nc2n(Cc2ccc(F)cc2)c1=O | 28.18 | inhibitor, single point

Once more, the final 4:

Compound	Potency (µM)	curve
O=C(O)CCCCC(=O)O	31.62	inhibitor, single point
N[C@H](CCCP(=O)(O)O)C(=O)O	89.13	inhibitor, partial curve
COCCn1c(=O)c(-c2cc(F)cc(F)c2)nc2cnc(N3CCN(C)CC3)nc21	25.12	inhibitor, single point
Cc1nc2cnc(OCc3ccccc3)nc2n(Cc2ccc(F)cc2)c1=O	28.18	inhibitor, single point

The results are deposited in PubChem (AID1508630; NCATS, 2021).